From the supplement of paper PMC8728848
The list shows a part of the results.

Experiments:
Assay in all cases: glycan array binding signal (z-score within array); higher = stronger binding
Settings in all cases: glycan notation: IUPAC condensed, linker removed
[1] = target: Man(a1-2)Man(a1-3)[Man(a1-2)Man(a1-6)]Man(a1-6)[Man(a1-2)Man(a1-2)Man(a1-3)]Man(b1-4)GlcNAc(b1-4)GlcNAc
In short: (§1)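 Glycan array binding is given as a within-array Z-score, which can be read as non-binding when negative. The arrays, 3228 of them, came from the Consortium for Functional Glycomics database and were retained only where the protein sequence was available. Z-scores were averaged across arrays of the same protein sequence at different concentrations or buffers and across linkers.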

[2] = target: Man(a1-2)Man(a1-3)[Man(a1-6)]Man(a1-6)[Man(a1-2)Man(a1-3)]Man(b1-4)GlcNAc(b1-4)GlcNAc
In short: as §1

[3] = target: Man(a1-2)Man(a1-6)[Man(a1-3)]Man(a1-6)[Man(a1-2)Man(a1-2)Man(a1-3)]Man
In short: as §1

[4] = target: Man(a1-2)Man(a1-6)[Man(a1-3)]Man(a1-6)[Man(a1-2)Man(a1-2)Man(a1-3)]Man(b1-4)GlcNAc(b1-4)GlcNAc
In short: as §1

[5] = target: Man(a1-3)[Man(a1-6)]Man
In short: as §1

[6] = target: Man(a1-3)[Man(a1-6)]Man(a1-6)[Man(a1-2)Man(a1-3)]Man(b1-4)GlcNAc(b1-4)GlcNAc
In short: as §1

[7] = target: Man(a1-3)[Man(a1-6)]Man(a1-6)[Man(a1-3)]Man
In short: as §1

[8] = target: Man(a1-3)[Man(a1-6)]Man(a1-6)[Man(a1-3)]Man(b1-4)GlcNAc(b1-4)GlcNAc
In short: as §1

[9] = target: Man(a1-3)[Man(a1-6)]Man(b1-4)GlcNAc(b1-4)GlcNAc
In short: as §1

[10] = target: Man(a1-3)[Man(a1-6)]Man(b1-4)GlcNAc(b1-4)[Fuc(a1-6)]GlcNAc
In short: as §1

[11] = target: Man(a1-6)Man
In short: as §1

[12] = target: Man(b1-4)GlcNAc
In short: as §1

[13] = target: MurNAc(b1-4)GlcNAc
In short: as §1

[14] = target: Neu5Ac(a2-3)Gal
In short: as §1

[15] = target: Neu5Ac(a2-3)Gal(b1-3)GalNAc
In short: as §1

[16] = target: Neu5Ac(a2-3)Gal(b1-3)GalNAc(b1-3)Gal(a1-4)Gal(b1-4)Glc
In short: as §1

[17] = target: Neu5Ac(a2-3)Gal(b1-3)GalNAc(b1-4)[Neu5Ac(a2-3)]Gal(b1-4)Glc
In short: as §1

[18] = target: Neu5Ac(a2-3)Gal(b1-3)GalNAc(b1-4)[Neu5Ac(a2-8)Neu5Ac(a2-3)]Gal(b1-4)Glc
In short: as §1

[19] = target: Neu5Ac(a2-3)Gal(b1-3)GalNAc6S
In short: as §1

[20] = target: Neu5Ac(a2-3)Gal(b1-3)GlcNAc
In short: as §1

[21] = target: Neu5Ac(a2-3)Gal(b1-3)GlcNAc(b1-2)Man
In short: as §1

[22] = target: Neu5Ac(a2-3)Gal(b1-3)GlcNAc(b1-2)Man(a1-3)[GlcNAc(b1-4)][Neu5Ac(a2-3)Gal(b1-3)GlcNAc(b1-2)Man(a1-6)]Man(b1-4)GlcNAc(b1-4)GlcNAc
In short: as §1

[23] = target: Neu5Ac(a2-3)Gal(b1-3)GlcNAc(b1-2)Man(a1-3)[Neu5Ac(a2-3)Gal(b1-3)GlcNAc(b1-2)Man(a1-6)]Man(b1-4)GlcNAc(b1-4)GlcNAc
In short: as §1

[24] = target: Neu5Ac(a2-3)Gal(b1-3)GlcNAc(b1-3)Gal(b1-3)GlcNAc
In short: as §1

[25] = target: Neu5Ac(a2-3)Gal(b1-3)GlcNAc(b1-3)Gal(b1-4)GlcNAc
In short: as §1

[26] = target: Neu5Ac(a2-3)Gal(b1-3)GlcNAc(b1-3)GalNAc
In short: as §1

[27] = target: Neu5Ac(a2-3)Gal(b1-3)GlcNAc(b1-4)Gal(b1-4)Glc
In short: as §1

[28] = target: Neu5Ac(a2-3)Gal(b1-3)GlcNAc(b1-6)GalNAc
In short: as §1

[29] = target: Neu5Ac(a2-3)Gal(b1-3)GlcNAc6S
In short: as §1

[30] = target: Neu5Ac(a2-3)Gal(b1-3)[Fuc(a1-4)]GlcNAc
In short: as §1

B1: Blon0732mut (Bifidobacterium longum) (protein)
chain: MPTSEHKADDATRHLTLIPAPVTLEYTHGTALIGPLVTIEDADQSWETLPIEQLSDELRHRYGVTVLRRRTHGTVISLGLDSRLAHDEYTLDVSESEGIRVRGGGESGLRYGLQTLRQIIGQTSRAIPCLHIQDKPAFAVRAYSLDVTRGRVPTMEFLTWFVDQLALYKYNQFQLYVEHAFAFVELSEAWRGTDPLTAADITYLDEYCARRGIELVPSLATFGHMYMNLRTREHRGLGEFPEDADRPFSFIERMEHHTLNAADPKAHDFASRLIEEYAPLFRSKSFNIGGNETFDLGRGRSAQDAPEAGRDELYAGFVRDLCETLARHGRQPMLWADIALESPRTMDLLPGDITMLNWMYEPQIDESKIQTIATQGRRQFVCPAVRAWSRFFPDYAGAWLNTYHMALAGTKYDAEGMVVTDWGDYGHVNDPRLSVPGLCYGAQNAWNPIEIDAHEMNRRISALVYGDESGRIMDCLARIDSDGVSFPWDLAVQVLELEYGSGTGALNMDVAACMERSSGGKLTLDRTLGCDDARRRMLQWNRERIERRRDCDQVLRDCGDAFAGLDKGGLTAEFLSVMLDGQRLFNELGEELLALADGKDVGSGANRLAADLELWFERYRAQWLSVGRHAELARIAHVVWSLADILRRGAL
[1]
  glycan array binding signal (z-score): -0.629
[2]
  glycan array binding signal (z-score): -0.893
[3]
  glycan array binding signal (z-score): -0.255
[4]
  glycan array binding signal (z-score): 0.637
[5]
  glycan array binding signal (z-score): -1.25
[6]
  glycan array binding signal (z-score): -1.5
[7]
  glycan array binding signal (z-score): -0.066
[8]
  glycan array binding signal (z-score): -0.6
[9]
  glycan array binding signal (z-score): -0.261
[10]
  glycan array binding signal (z-score): -1.28
[11]
  glycan array binding signal (z-score): -0.78
[12]
  glycan array binding signal (z-score): -0.953
[13]
  glycan array binding signal (z-score): -0.441
[14]
  glycan array binding signal (z-score): -0.286
[15]
  glycan array binding signal (z-score): -0.561
[16]
  glycan array binding signal (z-score): -0.229
[17]
  glycan array binding signal (z-score): -1.22
[18]
  glycan array binding signal (z-score): 3.81
[19]
  glycan array binding signal (z-score): -0.546
[20]
  glycan array binding signal (z-score): -0.428
[21]
  glycan array binding signal (z-score): 0.001
[22]
  glycan array binding signal (z-score): -0.712
[23]
  glycan array binding signal (z-score): -0.754
[24]
  glycan array binding signal (z-score): -0.804
[25]
  glycan array binding signal (z-score): -0.383
[26]
  glycan array binding signal (z-score): -0.781
[27]
  glycan array binding signal (z-score): 0.176
[28]
  glycan array binding signal (z-score): -0.704
[29]
  glycan array binding signal (z-score): -0.542
[30]
  glycan array binding signal (z-score): 0.93
